Reference: EP4714973A1 (Gracell Bioscience (Shanghai) Co., Ltd., dated 2026)
Positions count from the first letter of the chain named. No constants are given. Whether binding was seen depends on the method and setting. Some results given as binding are weak or reduced against the parent protein; the word gives no strength.

T1: CLL1 antigen (human-derived CLL1 antigen protein) (human) (UniProt Q5QGZ9)
T1 sequence (looked up): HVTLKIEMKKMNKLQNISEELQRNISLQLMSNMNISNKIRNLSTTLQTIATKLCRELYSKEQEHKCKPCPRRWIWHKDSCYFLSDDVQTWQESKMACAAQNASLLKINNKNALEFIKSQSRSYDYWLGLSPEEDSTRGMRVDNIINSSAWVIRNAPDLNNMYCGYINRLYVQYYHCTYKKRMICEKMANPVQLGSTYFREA

B1: C5 anti-CLL1 single-domain antibody (VHH)
VHH: QVQLVESGGGLVQPGGSLRLSCAASGFTFSSYDMGWARQVPGKAVEWVSGIYSDGSTYYADSVKGRFTISRDNAKNTVYLQMNSLKPEDTAVYYCATDPLTSELRSWGQGTQVTVSS
B2: C2 anti-CLL1 single-domain antibody (VHH)
VHH: QVQLVESGGGLVQPGGSLRLSCAASGFTFSSYAMGWARQVPGKEVEWVSGIYSDGSTYYANSVKGRFTISRDNAKNTMYLQMNSLKPEDTAVYHCATDPTVHSDLPVWGQGTLVTVSS
B3: C7 anti-CLL1 single-domain antibody (VHH)
VHH: B2 VHH with Y58N, N61D, M78V, K86R
B4: C4 anti-CLL1 single-domain antibody (VHH)
VHH: B2 VHH with E44D, Y58N, N61D, M78V, K86R
B5: C6 anti-CLL1 single-domain antibody (VHH)
VHH: B2 VHH with A23T, Y58N, N61D, M78V, K86R
B6: C8 anti-CLL1 single-domain antibody (VHH)
VHH: B2 VHH with Y58N, N61D, M78V, K86R, L113Q
B7: C3 anti-CLL1 single-domain antibody (VHH)
VHH: QVQLVESGGGLVQPGGSLRLSCAASGFTFSSYAMGWARQVPGKEVEWVSGIYSDGRTYYADSVKGRFTISRDNAKNEVYLQMNSLKPEDTAVYYCAPEPGQGVGDYWGQGTQVTVSS
B8: C10 anti-CLL1 single-domain antibody (VHH)
VHH: QVQLVESGGGLVQPGGSLRLACAASGFTFSSYAMGWARQVPGKDVEWVSGIYSDGSTYYADSVKGRFTISRDNAKNTVYLQMNSLKPEDTAVYYCATDPTLENQTTAWGQGTQVTVSS
B9: C9 anti-CLL1 single-domain antibody (VHH)
VHH: B8 VHH with A21S, D72Y
B10: C1 anti-CLL1 single-domain antibody (VHH)
VHH: QVQLVESGGGLVQPGGSLRLSCAASGFTFSSKTMGWARQVPGKAIEWLSGIYSDGSTYYADSVKGRFTISRDNAKNMVYLQMNSLKPEDTAVYYCATEDLTSYGRGTQVTVSS

Each binder was assayed against T1, CLL1 antigen (human-derived CLL1 antigen protein) (human) (assay: phage display panning on coated CLL1 antigen and phage ELISA).

| binding | Binder |
| --- | --- |
| binds | B1 |
| binds | B2 |
| binds | B3 |
| binds | B4 |
| binds | B5 |
| binds | B6 |
| binds | B7 |
| binds | B8 |
| binds | B9 |
| binds | B10 |
